Results as given in patent publication US5882644A, “Monoclonal antibodies specific for the platelet derived growth factor β receptor and methods of use thereof” (Protein Design Labs, Inc., priority 1996, dated 1999).
Where a chain is given by its changes, count along the chain named.

B1: HuM4TS.11: humanized muM4TS.11, human III-2R framework, gamma4 constant region; SEQ ID NOS:14 and 16 (antibody, V domains shown)
VL: METDTLLLWVLLLWVPGSTGDIQMTQSPSSLSASVGDRVTITCRASESVDSYGNSFMHWYQQKPGKAPKLLIYRASNLESGIPSRFSGSGSRTDFTLTISSLQPEDVATYYCQQSNEDPPTFGQGTKVEIK
VH: MGWSWIFLFLLSGTAGVHSQVQLVQSGAEVKKPGASVKVSCKASGYTFTNCWMHWVRQAPGQGLEWIGYINPTTGYSEYNQNFKDKATITADKSTSTAYMELSSLRSEDTAVYYCTSNYGHYDWFGNWGQGTLVT
B2: muM4TS.11: murine monoclonal antibody to PDGF-R β, variable regions SEQ ID NOS:10 and 12; epitope in fourth extracellular domain (antibody, V domains shown)
VL: METETLLLWVLLLWVPGSTGDIVLTQSPPSLAVSLGQRATISCRASESVDSYGNSFMHWYQQKPGQPPKLLIYRASNLESGIPARFSGGGSRTDFTLTINPVEADDVATYYCQQSNEDPPTFGGGTKLEIK
VH: MERHWIFLFLFSVTAGVHSQVQLQQSGAEVAKPGASVKMSCKASGYTFTNCWMHWVKQRPGQGLEWIGYINPTTGYSEYNQNFKDKATLTADKSSNTAYIQLSSLTSEDSAVYYCTSNYGHYDWFANWGQGTLVT
B3: muM4TS.22: murine monoclonal antibody to PDGF-R β, variable regions SEQ ID NOS:2 and 4; epitope in third extracellular domain (antibody, V domains shown)
VL: MRVLAELLGLLLFCFLGVRCDIQMNQSPSSLSASLGDTITITCHASQNINVWLSWYQRKPGNIPKLLIYKASNLHTGVPSRFSGSGSGTGFTLTISSLQPEDIATYYCQQGQSFPFTFGSGTKLEIK
VH: MAVLALLLCLVTFPSCALSQVQLKESGPGLVAPSQSLSITCTVSGFSLTNYAINWVRQPPGQGLEWLGIIWTGGGTSYNSALKSRLSISKDNSKSQVFLKMNSLQTDDTARYYCARTGTRGYFFDYWGQGTTLTVSS
B4: HuM4TS.22: humanized muM4TS.22, human IC4 framework, gamma4 constant region; SEQ ID NOS:6 and 8 (antibody, V domains shown)
VL: B3 VL with N25T, L35V, T38R, I39V, R58Q, N62K, I63A, S120G, L124V
VH: MAVLALLLCLVTFPSCALSQVQLQESGPGLVKPSETLSLTCTVSGFSLTNYAINWVRQPPGKGLEWLGIIWTGGGTSYNSALKSRLTISKDTSKNQVSLKLSSVTAADTAVYYCARTGTRGYFFDYWGQGTLVTVSS

test system: PDGF-R β deletion fusion proteins; test: ELISA epitope mapping with PDGF-R β deletion fusion proteins; assay type: binding, human; conditions: concluded from deletion protein ELISA
Excerpt: To localize the binding sites of the M4TS antibodies on the PDGF-R, a series of PDGF-R β deletion mutants, each consisting of one or more adjacent domains of the extracellular portion of the receptor, was constructed by standard methods including PCR. The deletion constructs were each cloned into an expression plasmid (FIG. 13A) where they were fused to the constant region of the human lambda-1 immunoglobulin light chain, to facilitate detection in ELISA. The constructs were as follows (see FIG. 13B):
These PDGF-R β deletion fusion proteins were transiently expressed, by transfecting 10 μg of the respective expression plasmids into approximately 10^7 S194 mouse myeloma cells (ATCC TIB 19) using the DEAE-dextran method in accordance with the method described by Queen et al. (1984) Mol. Cell. Biol. 4:1042. After the transfected cells had died (4-5 days) and been removed by centrifugation, the culture supernatants containing the PDGF-R β deletion proteins were used in ELISA assays, 100 μl/well. First, the relative levels of the various PDGF-R β deletion proteins were measured in an ELISA where the plate was coated with goat anti-human lambda antibody (Tago) and the proteins detected with HRP-conjugated goat anti-human lambda antibody. […] To determine the ability of the antibodies to bind to each deletion protein, an ELISA was performed in which goat anti-human lambda antibody was used to coat the plate, followed by the cell supernatant and then 0.1 μg of the appropriate antibody, and then bound antibody detected with HRP-conjugated goat-anti-mouse Ig or goat-anti-human Ig antibody as appropriate (Tago). As a positive control, purified soluble PDGF-R β (Example 1) was coated directly on certain wells of the plate (denoted D1-5 in FIG. 14).

| Molecule | location of binding epitope on PDGF-R β |
| --- | --- |
| B1 | in the fourth domain |
| B2 | in the fourth domain |
| B3 | in the third domain |
| B4 | in the third domain |
